# The list shows a part of the results. The data scatter; read single values as rough.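 Tm was set to 64 °C where no melting was found, and many curves are irregular.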
# Sequences of proteins named here, by UniProt entry; tags and fusion partners are left off. A change or cut given only in a name is not applied to a line headed by its entry.
# UniProt Q13619, whole entry: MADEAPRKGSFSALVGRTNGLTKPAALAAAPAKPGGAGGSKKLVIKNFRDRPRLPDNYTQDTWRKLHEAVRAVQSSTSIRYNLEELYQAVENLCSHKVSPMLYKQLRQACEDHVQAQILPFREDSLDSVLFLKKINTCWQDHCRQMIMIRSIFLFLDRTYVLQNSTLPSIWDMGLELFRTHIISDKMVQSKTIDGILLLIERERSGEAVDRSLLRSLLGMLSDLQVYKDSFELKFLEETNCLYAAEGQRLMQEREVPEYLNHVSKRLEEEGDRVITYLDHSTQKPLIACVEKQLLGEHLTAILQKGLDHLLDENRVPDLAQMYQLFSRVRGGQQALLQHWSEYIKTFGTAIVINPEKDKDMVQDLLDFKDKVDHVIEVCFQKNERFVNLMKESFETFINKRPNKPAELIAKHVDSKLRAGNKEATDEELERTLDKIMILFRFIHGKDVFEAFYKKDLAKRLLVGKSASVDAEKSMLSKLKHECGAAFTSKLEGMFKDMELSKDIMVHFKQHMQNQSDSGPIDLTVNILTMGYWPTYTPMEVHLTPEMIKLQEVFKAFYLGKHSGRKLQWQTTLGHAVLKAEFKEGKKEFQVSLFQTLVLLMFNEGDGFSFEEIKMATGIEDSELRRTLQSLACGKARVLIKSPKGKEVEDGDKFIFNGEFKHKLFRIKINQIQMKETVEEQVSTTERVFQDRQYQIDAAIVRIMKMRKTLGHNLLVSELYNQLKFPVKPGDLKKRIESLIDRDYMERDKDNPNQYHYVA
# UniProt Q14240, whole entry: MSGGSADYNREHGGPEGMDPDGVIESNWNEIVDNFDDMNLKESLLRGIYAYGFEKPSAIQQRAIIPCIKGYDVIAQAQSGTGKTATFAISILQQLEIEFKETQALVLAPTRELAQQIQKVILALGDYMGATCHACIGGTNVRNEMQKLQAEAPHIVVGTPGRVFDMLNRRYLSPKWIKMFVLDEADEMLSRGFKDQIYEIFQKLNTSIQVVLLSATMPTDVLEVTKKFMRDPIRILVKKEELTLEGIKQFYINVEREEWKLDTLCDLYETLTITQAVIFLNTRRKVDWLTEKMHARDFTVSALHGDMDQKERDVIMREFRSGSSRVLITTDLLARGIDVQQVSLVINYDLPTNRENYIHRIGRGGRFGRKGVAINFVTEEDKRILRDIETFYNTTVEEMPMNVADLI
# UniProt Q13555: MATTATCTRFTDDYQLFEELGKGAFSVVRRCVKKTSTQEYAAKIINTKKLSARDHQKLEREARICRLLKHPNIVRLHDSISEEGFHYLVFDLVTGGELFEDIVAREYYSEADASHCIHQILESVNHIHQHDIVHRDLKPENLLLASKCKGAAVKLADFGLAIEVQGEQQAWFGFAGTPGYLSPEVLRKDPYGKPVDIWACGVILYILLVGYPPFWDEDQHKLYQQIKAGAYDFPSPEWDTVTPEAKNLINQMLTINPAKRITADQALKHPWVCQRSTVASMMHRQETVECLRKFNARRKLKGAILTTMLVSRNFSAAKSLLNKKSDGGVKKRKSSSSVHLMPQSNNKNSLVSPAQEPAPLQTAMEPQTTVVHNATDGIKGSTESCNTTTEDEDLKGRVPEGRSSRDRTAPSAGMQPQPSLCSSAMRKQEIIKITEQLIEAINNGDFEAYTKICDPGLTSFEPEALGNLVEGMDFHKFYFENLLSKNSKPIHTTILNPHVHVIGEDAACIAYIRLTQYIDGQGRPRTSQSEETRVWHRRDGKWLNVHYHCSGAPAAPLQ
# UniProt Q13938: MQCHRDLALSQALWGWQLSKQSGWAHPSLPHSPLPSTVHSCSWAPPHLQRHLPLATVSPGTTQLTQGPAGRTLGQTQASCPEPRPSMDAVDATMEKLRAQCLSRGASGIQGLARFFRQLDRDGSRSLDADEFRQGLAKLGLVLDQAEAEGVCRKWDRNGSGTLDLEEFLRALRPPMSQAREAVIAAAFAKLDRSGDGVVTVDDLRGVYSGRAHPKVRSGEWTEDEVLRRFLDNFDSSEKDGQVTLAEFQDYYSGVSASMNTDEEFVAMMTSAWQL
# UniProt Q13686: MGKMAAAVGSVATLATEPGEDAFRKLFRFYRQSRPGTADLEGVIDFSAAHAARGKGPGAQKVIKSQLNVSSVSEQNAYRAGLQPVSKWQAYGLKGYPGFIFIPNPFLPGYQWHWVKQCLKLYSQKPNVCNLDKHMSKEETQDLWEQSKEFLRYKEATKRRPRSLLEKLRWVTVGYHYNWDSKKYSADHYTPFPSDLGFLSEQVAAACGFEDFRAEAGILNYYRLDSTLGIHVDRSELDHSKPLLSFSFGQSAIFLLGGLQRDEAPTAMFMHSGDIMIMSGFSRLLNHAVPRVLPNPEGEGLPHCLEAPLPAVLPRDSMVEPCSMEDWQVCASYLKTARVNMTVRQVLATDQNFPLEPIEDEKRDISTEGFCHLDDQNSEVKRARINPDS
# UniProt Q15025: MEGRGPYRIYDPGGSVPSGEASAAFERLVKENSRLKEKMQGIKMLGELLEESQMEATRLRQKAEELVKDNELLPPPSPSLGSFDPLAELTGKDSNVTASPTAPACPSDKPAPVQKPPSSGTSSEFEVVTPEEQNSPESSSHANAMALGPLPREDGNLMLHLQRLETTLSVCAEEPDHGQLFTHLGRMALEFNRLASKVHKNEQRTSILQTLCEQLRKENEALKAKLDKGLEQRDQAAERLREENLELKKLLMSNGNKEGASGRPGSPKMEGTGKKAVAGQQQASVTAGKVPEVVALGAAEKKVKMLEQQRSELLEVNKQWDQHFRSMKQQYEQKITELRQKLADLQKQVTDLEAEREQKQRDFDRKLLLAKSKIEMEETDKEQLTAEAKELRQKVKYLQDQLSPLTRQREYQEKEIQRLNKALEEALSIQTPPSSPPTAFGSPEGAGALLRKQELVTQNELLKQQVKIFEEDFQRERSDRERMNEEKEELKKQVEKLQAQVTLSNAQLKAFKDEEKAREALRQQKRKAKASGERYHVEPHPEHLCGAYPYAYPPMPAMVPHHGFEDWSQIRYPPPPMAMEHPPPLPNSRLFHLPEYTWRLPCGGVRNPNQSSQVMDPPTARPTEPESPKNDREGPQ
# UniProt Q13394: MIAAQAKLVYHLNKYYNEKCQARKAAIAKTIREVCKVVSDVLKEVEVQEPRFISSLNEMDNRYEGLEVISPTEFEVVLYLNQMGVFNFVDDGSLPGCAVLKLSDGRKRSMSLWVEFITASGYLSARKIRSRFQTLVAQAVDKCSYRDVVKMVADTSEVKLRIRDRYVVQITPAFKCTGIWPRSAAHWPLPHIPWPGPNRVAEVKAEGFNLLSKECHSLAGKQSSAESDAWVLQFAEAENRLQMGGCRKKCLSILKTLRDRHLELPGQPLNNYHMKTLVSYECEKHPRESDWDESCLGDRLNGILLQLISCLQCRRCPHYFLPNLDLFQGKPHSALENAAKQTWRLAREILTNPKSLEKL
# UniProt Q13685: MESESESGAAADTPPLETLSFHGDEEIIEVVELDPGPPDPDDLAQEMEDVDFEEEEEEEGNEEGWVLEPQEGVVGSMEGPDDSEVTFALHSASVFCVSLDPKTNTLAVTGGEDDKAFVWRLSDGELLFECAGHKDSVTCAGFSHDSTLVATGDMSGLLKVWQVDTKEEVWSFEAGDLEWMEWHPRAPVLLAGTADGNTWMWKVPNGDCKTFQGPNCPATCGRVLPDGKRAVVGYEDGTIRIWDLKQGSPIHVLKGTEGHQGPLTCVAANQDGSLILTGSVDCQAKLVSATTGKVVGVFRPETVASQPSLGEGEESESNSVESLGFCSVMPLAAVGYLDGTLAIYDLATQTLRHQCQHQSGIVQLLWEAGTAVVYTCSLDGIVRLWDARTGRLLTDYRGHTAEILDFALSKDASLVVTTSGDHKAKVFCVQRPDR
# UniProt Q14914: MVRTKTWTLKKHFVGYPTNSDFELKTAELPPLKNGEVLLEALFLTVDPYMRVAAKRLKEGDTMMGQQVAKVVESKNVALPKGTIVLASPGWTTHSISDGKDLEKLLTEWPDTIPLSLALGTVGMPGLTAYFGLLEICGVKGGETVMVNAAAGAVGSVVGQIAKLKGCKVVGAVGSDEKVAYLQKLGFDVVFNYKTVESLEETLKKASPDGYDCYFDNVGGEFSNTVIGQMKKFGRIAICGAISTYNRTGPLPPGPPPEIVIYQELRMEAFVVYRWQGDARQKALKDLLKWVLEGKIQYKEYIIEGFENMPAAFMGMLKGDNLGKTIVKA
# UniProt Q14103: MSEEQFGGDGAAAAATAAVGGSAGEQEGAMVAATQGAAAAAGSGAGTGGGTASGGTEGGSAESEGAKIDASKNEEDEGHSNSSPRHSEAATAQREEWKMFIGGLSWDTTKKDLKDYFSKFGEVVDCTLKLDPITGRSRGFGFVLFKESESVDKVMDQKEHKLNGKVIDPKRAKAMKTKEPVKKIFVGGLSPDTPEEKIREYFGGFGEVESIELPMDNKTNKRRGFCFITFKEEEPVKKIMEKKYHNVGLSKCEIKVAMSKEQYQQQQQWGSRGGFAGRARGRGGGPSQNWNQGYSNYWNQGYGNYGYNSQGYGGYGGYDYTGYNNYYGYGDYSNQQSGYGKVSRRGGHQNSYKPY
# UniProt Q13188: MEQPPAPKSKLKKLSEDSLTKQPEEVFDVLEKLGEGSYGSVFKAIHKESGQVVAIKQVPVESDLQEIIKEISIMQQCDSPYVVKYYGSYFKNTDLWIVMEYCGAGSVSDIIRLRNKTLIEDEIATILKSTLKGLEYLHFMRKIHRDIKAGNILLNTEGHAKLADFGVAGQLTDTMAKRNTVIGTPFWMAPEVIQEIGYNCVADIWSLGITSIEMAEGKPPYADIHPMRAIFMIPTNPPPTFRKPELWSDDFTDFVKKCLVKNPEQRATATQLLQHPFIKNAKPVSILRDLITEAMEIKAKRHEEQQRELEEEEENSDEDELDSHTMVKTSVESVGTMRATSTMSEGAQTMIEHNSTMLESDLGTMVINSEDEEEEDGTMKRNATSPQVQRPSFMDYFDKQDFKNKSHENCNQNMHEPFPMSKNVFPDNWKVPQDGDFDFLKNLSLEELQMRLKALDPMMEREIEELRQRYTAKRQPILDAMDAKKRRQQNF
# UniProt Q13362, whole entry, looked up: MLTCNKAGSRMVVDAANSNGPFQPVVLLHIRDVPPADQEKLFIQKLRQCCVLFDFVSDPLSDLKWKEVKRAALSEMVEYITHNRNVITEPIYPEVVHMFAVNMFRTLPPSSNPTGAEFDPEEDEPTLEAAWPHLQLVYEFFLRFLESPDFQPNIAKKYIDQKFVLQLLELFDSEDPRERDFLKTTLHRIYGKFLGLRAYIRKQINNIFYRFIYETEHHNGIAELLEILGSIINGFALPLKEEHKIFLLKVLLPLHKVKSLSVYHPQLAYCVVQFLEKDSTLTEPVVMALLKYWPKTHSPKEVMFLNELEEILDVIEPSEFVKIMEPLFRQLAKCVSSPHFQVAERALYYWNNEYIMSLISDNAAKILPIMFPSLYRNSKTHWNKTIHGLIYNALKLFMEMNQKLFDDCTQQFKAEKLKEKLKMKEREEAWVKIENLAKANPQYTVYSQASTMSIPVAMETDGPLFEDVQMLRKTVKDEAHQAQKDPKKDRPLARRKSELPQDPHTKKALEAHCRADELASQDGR
# UniProt Q13242, whole entry: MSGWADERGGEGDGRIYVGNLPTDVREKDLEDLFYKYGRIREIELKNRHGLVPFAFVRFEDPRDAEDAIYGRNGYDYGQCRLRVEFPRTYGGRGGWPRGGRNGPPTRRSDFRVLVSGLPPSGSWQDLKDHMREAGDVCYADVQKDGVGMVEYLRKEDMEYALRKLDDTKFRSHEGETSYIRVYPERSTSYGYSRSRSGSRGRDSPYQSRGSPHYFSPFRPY
# UniProt Q13724: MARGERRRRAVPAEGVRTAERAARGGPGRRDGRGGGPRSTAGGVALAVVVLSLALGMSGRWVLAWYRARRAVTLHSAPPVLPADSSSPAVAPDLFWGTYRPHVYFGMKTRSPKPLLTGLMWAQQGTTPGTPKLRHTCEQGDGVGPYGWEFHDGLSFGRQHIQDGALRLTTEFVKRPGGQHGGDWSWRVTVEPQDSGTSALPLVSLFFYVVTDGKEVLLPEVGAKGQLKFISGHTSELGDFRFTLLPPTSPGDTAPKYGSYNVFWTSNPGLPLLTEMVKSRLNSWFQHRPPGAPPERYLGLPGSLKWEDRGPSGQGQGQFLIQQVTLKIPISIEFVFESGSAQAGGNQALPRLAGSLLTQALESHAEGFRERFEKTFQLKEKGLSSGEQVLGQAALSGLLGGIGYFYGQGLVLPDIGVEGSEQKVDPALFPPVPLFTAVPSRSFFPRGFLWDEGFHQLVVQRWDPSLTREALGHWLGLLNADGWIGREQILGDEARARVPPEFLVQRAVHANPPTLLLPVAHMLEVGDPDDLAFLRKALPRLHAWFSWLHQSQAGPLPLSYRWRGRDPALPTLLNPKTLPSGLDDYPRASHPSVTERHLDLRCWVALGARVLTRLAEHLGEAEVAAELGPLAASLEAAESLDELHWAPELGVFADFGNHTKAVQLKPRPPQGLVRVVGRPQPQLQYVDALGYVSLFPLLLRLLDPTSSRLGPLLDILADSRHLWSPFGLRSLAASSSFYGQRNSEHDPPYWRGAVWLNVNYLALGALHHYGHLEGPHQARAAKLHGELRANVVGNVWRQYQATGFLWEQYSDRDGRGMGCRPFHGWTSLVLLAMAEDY
# Compound: CCc1cnccc1C(=O)Nc1cc2c(cc1F)NC(=O)CC2
# Assay: melting temperature shift (DMSO Tm minus MBE1-treated Tm) in cellular thermal proteome profiling; higher = less thermal stabilization by MBE1 (negative = stabilized by MBE1)
# Conditions: A375; MBE1 concentration: 100 nM
row,Target,melting temperature shift [°C]
1,DCTN1 (UniProt Q14203),0.304
2,EIF2B5 (UniProt Q13144),-0.263
3,CUL4A (UniProt Q13619),0.995
4,EIF4A2 (UniProt Q14240),-0.107
5,CAMK2G (UniProt Q13555),-0.806
6,ILK (UniProt Q13418),1.15
7,UniProt Q13938,0.11
8,CBLB (UniProt Q13191),-0.00611
9,TFDP1 (UniProt Q14186),-0.377
10,MLEC (UniProt Q14165),-1.04
11,FAT1 (UniProt Q14517),-1.2
12,TARBP1 (UniProt Q13395),-0.443
13,ALKBH1 (UniProt Q13686),-0.0366
14,PUM1 (UniProt Q14671),0.385
15,CHD4 (UniProt Q14839),-0.448
16,TNIP1 (UniProt Q15025),-0.153
17,UniProt Q13394,-0.171
18,SMC1A (UniProt Q14683),0.0855
19,AAMP (UniProt Q13685),-1.19

row,Target,melting temperature shift [°C]
1,FAM175B (UniProt Q15018),-2.4
2,UniProt Q13488,-1.47
3,PTGR1 (UniProt Q14914),1.26
4,PAK1 (UniProt Q13153),-1.4
5,UniProt Q14191,-1.24
6,HNRNPD (UniProt Q14103),-1.58
7,SNX1 (UniProt Q13596),0.134
8,UniProt Q13188,-0.309
9,UniProt Q13367,0.629
10,BOP1 (UniProt Q14137),-4.07
11,BYSL (UniProt Q13895),-0.616
12,PPP2R5C (UniProt Q13362),1.96
13,FLII (UniProt Q13045),-0.104
14,PICALM (UniProt Q13492),-0.483
15,TRIM28 (UniProt Q13263),0.11
16,LPIN1 (UniProt Q14693),-0.0447
17,SRSF9 (UniProt Q13242),2.03
18,MOGS (UniProt Q13724),-0.122
19,UniProt Q14146,-0.386

# Same assay, conditions: A375; MBE1 concentration: 1 uM
row,Target,melting temperature shift [°C]
1,DCTN1 (UniProt Q14203),0.173
2,EIF2B5 (UniProt Q13144),-0.0794
3,CUL4A (UniProt Q13619),0.659
4,EIF4A2 (UniProt Q14240),0.925
5,CAMK2G (UniProt Q13555),-0.611
6,ILK (UniProt Q13418),0.696
7,UniProt Q13938,0.0366
8,CBLB (UniProt Q13191),0.353
9,TFDP1 (UniProt Q14186),-1.17
10,MLEC (UniProt Q14165),-0.566
11,FAT1 (UniProt Q14517),-0.463
12,TARBP1 (UniProt Q13395),0.733
13,ALKBH1 (UniProt Q13686),-0.00611
14,PUM1 (UniProt Q14671),-0.305
15,CHD4 (UniProt Q14839),-0.256
16,TNIP1 (UniProt Q15025),0.0122
17,UniProt Q13394,0.0916
18,SMC1A (UniProt Q14683),0.464
19,AAMP (UniProt Q13685),-0.922

row,Target,melting temperature shift [°C]
1,FAM175B (UniProt Q15018),-2.4
2,UniProt Q13488,-1.17
3,PTGR1 (UniProt Q14914),0.397
4,PAK1 (UniProt Q13153),0.55
5,UniProt Q14191,-0.436
6,HNRNPD (UniProt Q14103),-0.453
7,SNX1 (UniProt Q13596),0.0427
8,UniProt Q13188,-0.449
9,UniProt Q13367,0.183
10,BOP1 (UniProt Q14137),-2.87
11,BYSL (UniProt Q13895),-0.598
12,PPP2R5C (UniProt Q13362),1.45
13,FLII (UniProt Q13045),-0.055
14,PICALM (UniProt Q13492),-0.0939
15,TRIM28 (UniProt Q13263),-0.659
16,LPIN1 (UniProt Q14693),0.393
17,SRSF9 (UniProt Q13242),-0.348
18,MOGS (UniProt Q13724),0.409
19,UniProt Q14146,-0.146
